# Test results taken from PubChem BioAssay AID2685 (National Center for Advancing Translational Sciences (NCATS), 2010).
# The list shows a part of the results. The main result of the screen is listed elsewhere. These columns were measured beside it and carry no call. Most of these compounds were active or inconclusive in the main read-out, so they are no random draw. Words in brackets tell the shape of the fitted curve; partial curves, single points and poor fits give uncertain potencies.
# Test: qHTS Assay for Lipid Storage Modulators in Drosophila S3 Cells;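 as to cell number change: cells counted by Cell Tracker Red CMTPX staining in the red channel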
# Conditions: BODIPY lipid droplet fluorescence, 18-24 h; for cell number change: measured here: cell count max response, cells fed with added oleic acid
# Procedure, shortened: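 Drosophila S3 cells got compounds at several concentrations plus oleic acid (400 uM solution). Laser-scanning cytometry with 488 nm excitation read lipid droplets at 500-530 nm and cells at 575-640 nm. Percent activity was relative to 20 uM Triacsin C.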
# [1] = measured here: lipid fluorescence (Fed channel) AC50, cells fed with added oleic acid
# [2] = measured here: cell number channel AC50, cells fed with added oleic acid
SMILES,AC50 [1],cell number change,AC50 [2]
Cc1ccc(S(=O)(=O)NNC(=O)NC23CC4CC(CC(C4)C2)C3)cc1,"29.1 µM [falling, single point]",–,–
COc1ccccc1-c1nnc(SCC(=O)c2ccc(C3CCCCC3)cc2)n1Cc1ccco1,"20.6 µM [rising, single point]",6.12%,"0.116 µM [falling, full curve, poor fit]"
CC(C)(C)[C@H]1CCC(=O)N([C@H](CC#N)Cc2ccccc2)CC1,"32.6 µM [falling, partial curve, poor fit]",–,–
O=S(=O)(Nc1nc2ccccc2nc1NCC1CCCO1)c1cc(Cl)ccc1Cl (stereo unspecified),"13 µM [rising, partial curve]",20.9%,–
COc1cc(C2C(C(=O)c3ccc(C)o3)=C(O)C(=O)N2c2cc(C)on2)ccc1O (stereo unspecified),"14.6 µM [falling, partial curve, poor fit]",21.2%,–
COc1cc(C(C(=O)NC2CCCC2)N(CCO)C(=O)Cn2nnc(-c3ccc(C)o3)n2)ccc1O (stereo unspecified),"6.51 µM [falling, single point]",19.6%,–
CCC1CCc2sc(C(=O)O)cc2C1 (stereo unspecified),"6.51 µM [rising, single point]",–,"0.0164 µM [rising, full curve, poor fit]"
OCC1(Cc2ccccc2C(F)(F)F)CCN(Cc2ccc3c(c2)CCO3)CC1,"1.46 µM [falling, full curve]",–,–
CCc1ccc(OCc2nnc(SCC(=O)Nc3cccc(C(=O)N4CCOCC4)c3)o2)cc1,"0.092 µM [falling, full curve, poor fit]",-14.1%,–
Cc1onc(-c2ccccc2)c1C(=O)Nc1sc2c(c1C#N)CCC2,–,–,"2.31 µM [rising, single point]"
CCOC(=O)/C(C#N)=C\c1ccc(OCC(=O)Nc2ccc(C)cc2C)c(OC)c1,"0.0651 µM [rising, full curve, poor fit]",4.31%,"2.31 µM [rising, partial curve, poor fit]"
Cc1nonc1OCCNCc1c(C(=O)N2CCCCCCC2)nc2ccc(Cl)cn12,"23.1 µM [falling, partial curve]",-9.44%,–
COc1ccc(C(=O)O)cc1S(=O)(=O)Nc1ccc(C)cc1,–,-43.8%,"0.184 µM [falling, full curve]"
CC(C)CCNc1nc(N2CCCC2)c2c(c1C#N)CCN(C)C2,–,40.7%,"1.64 µM [rising, partial curve]"
Cc1cc(C)c2ccc(=O)n(CC(=O)N/N=C/c3ccccc3Cl)c2n1,–,33.5%,"0.00461 µM [rising, full curve, poor fit]"
COc1ccc2c(CC(=O)NCCN3C(=O)S/C(=C\c4cccnc4)C3=O)coc2c1,"29.1 µM [falling, single point]",-141%,"29.1 µM [falling, single point]"
O=C(N/N=C/c1ccc(Br)s1)c1ccc([N+](=O)[O-])cc1,"2.31 µM [rising, partial curve]",–,"1.64 µM [rising, partial curve]"
O=C(Nc1ccc(Cl)c(Cl)c1)N1CC=CCC1,–,3.31%,–
CC1(C)CC(NC(=O)COc2ccc(Br)cc2Cl)CC(C)(C)N1,"29.1 µM [rising, single point]",36.4%,"29.1 µM [rising, single point]"

SMILES,AC50 [1],cell number change,AC50 [2]
O=C(CS(=O)(=O)c1ccccc1)N1CCN(c2ccccc2)CC1,–,-50%,"16.4 µM [falling, single point]"
CN(C)c1ccc(N=c2sc3ccccc3n2C)cc1,–,-57%,"20.6 µM [falling, single point]"
CC(C)Cc1cc(C(=O)Nc2cccc(O)c2)no1,"29.1 µM [falling, single point]",-11.4%,"0.164 µM [falling, full curve, poor fit]"
CCN(CC)CCNC1=NCCn2c1cc1cc(OC)ccc12,–,-105%,"25.9 µM [falling, partial curve]"
COc1c(C)cccc1C(=O)Nc1ccc(N2CCN(S(C)(=O)=O)CC2)cc1,"0.164 µM [rising, full curve, poor fit]",18.7%,–
O=C(C1=COCCO1)N1CCN(C(c2ccccc2)c2ccccc2)CC1,–,-1.48%,–
CC1CC(C)CN(C(=O)CSc2nc(N)cc(=O)[nH]2)C1 (stereo unspecified),–,-5.41%,–
Cc1nnc2c(NCC(C)c3ccccc3)nc3ccccc3n12 (stereo unspecified),–,2.84%,–
CN(CC(=O)Nc1ccc(F)cc1)C(=O)CNC(=O)C1CCCCC1,"29.1 µM [rising, single point]",1.48%,–
COc1cccc(C2/C(=C(/O)c3cnn(-c4ccccc4)c3C)C(=O)C(=O)N2CCN(C)C)c1OC (stereo unspecified),"6.51 µM [rising, single point]",17.3%,"1.84 µM [rising, partial curve, poor fit]"
O=C(/C=C/c1ccc(Br)cc1)NCc1cccs1,"5.17 µM [falling, full curve]",-7.06%,–
Cc1ccc(COC(=O)Cc2coc3cc(O)ccc23)cc1,"0.116 µM [rising, single point]",18.8%,–
NCc1c(O)ccc2ccccc12,"6.51 µM [rising, single point]",14.3%,–
Cc1onc(-c2ccccc2)c1C(=O)N1CCN(C)CC1,"2.31 µM [falling, full curve, poor fit]",3.26%,–
Nc1ccc2c(c1)C(=O)C(=O)c1ccccc1-2,"7.31 µM [falling, partial curve]",-66.3%,"7.31 µM [falling, partial curve]"
CCN(CC)c1ccc(S(=O)(=O)N2CCOCC2)cc1NC(=O)CSC(=S)N1CCCC1,"29.1 µM [falling, single point]",-32.3%,"20.6 µM [falling, partial curve, poor fit]"
COc1ccc(OC)c(S(=O)(=O)Nc2cc(OC)c(Cl)cc2OC)c1,"29.1 µM [rising, partial curve]",7.94%,"6.51 µM [rising, single point]"
CNc1nnc(-c2cc3cc(Cl)ccc3oc2=O)s1,"1.64 µM [rising, partial curve]",-1.61%,–
CCN(CC)C(=O)CCCSc1nnc(Nc2ccccc2F)s1,"7.31 µM [falling, partial curve, poor fit]",-33.7%,"32.6 µM [falling, single point]"

SMILES,AC50 [1],cell number change,AC50 [2]
COc1ccc(N(C(=O)c2snc(C(N)=O)c2N)C(C(=O)NCC2CCCO2)c2ccc3ncccc3c2)cc1OC (stereo unspecified),–,5.26%,–
Cc1ccc(N(CC(=O)NCc2ccc(F)cc2)C(=O)c2csnn2)cc1C,–,–,"6.51 µM [rising, single point]"
CCC(=O)Nc1ccc(NC(=O)CSc2nnnn2C(C)C)cc1,"6.51 µM [rising, single point]",89.8%,"13 µM [rising, partial curve]"
CN(C)CCN(C(=O)c1ccc2ccccc2c1)c1nc2c(F)cccc2s1,"29.1 µM [falling, single point]",–,–
COc1cccc(OC)c1C(=O)NC(=S)NNC(=O)[C@H]1C[C@@H]1c1ccccc1,"0.58 µM [falling, partial curve]",8.57%,"0.58 µM [falling, partial curve]"
CCn1c(COc2c(C)cccc2C)nnc1SCc1nc2ccccc2c(=O)[nH]1,"0.164 µM [rising, full curve, poor fit]",–,"1.46 µM [rising, partial curve, poor fit]"
COC(=O)c1cn(NC(=O)Cn2nc([N+](=O)[O-])c(Cl)c2C)c(=O)c2ccccc12,–,15.3%,–
Cc1ccccc1Cn1c2ccccc2c2cnn(CC(=O)NCCCN3CCN(C)CC3)c(=O)c21,–,-20.6%,–
COc1cc(OC)c(/C=N/NC(=O)c2ccc([N+](=O)[O-])cc2)cc1Br,"0.651 µM [falling, full curve]",-20.2%,"0.116 µM [falling, full curve, poor fit]"
Cc1ccc(-c2nn(CCC(N)=O)c(=O)c3ccccc23)cc1,"29.1 µM [falling, single point]",-16.7%,–
CCCc1nc2ccccc2c(=O)n1/N=C/c1ccc(O)c(O)c1,"29.1 µM [falling, single point]",-27.3%,–
CCCSc1nc(SCC(=O)NCc2ccccc2)c2c3c(sc2n1)COC(C)(C)C3,"0.731 µM [rising, single point]",–,–
O=S(=O)(c1ccc(Cl)cc1)N1CCN=C1SCc1ccc(Cl)c(Cl)c1,"16.4 µM [rising, partial curve]",8.2%,–
Cc1ccc(Nc2nc(N)c3ccccc3n2)cc1C,"29.1 µM [falling, single point]",-2.11%,–
CCn1c(=O)c(=O)[nH]c2cc(C(=O)NC(C)c3ccc(S(N)(=O)=O)cc3)ccc21 (stereo unspecified),"0.58 µM [rising, single point]",–,–
O=C(NC1CC1)c1sc2cc(Cl)ccc2c1Cl,–,-4.67%,"0.0116 µM [rising, full curve, poor fit]"
Cc1ccccc1OC(C)C(=O)Nc1ccc(S(=O)(=O)N2CCCC2)cc1 (stereo unspecified),"35.5 µM [falling, single point]",-36.9%,"35.5 µM [falling, single point]"
CCCN(CC(=O)Nc1ccc(OC)c(OC)c1)CC(=O)Nc1ccc(F)c(F)c1F,–,39.9%,"29.1 µM [rising, single point]"
